# According to PMC5438246:
# Results are given in words; binding and its absence hold for the method and conditions named. Binding seen in cells or lysates may run through a third protein. A result given as binding can be weak or reduced; the word gives no strength. Where a sequence is shown, tags or fusion partners need not be part of it.
# How the values were obtained:
# [1] = target: T1, GFP:SNAP33 (Qbc-SNARE SNAP33 fused to GFP, estradiol-inducible) (Arabidopsis thaliana) (UniProt Q9S7P9); assay: co-IP; protein extracts of Arabidopsis seedlings (wild type, big3, or gnl1 GNL1^BFA-sens.) with estradiol-induced YFP:NPSN11 or GFP:SNAP33, with or without 50 µM BFA (30 min, then BFA + 20 µM estradiol 210 min; traffic blocked at the TGN or at the ER); anti-GFP beads (GFP-trap) 2 hr in the cold; 50 mM Tris pH 7.5, 150 mM NaCl, 1 mM EDTA, 0.5% Triton X-100 (washes 0.2%); immunoblot
# T1 sequence: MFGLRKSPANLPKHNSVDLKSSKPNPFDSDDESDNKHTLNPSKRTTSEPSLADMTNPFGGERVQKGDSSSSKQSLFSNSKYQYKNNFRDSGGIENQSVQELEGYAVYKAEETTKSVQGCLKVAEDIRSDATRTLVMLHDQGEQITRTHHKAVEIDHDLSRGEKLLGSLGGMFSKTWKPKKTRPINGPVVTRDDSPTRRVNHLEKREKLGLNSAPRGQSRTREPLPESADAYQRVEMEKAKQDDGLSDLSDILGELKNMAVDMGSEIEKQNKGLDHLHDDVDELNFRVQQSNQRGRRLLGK
# [2] = target: T2, YFP:NPSN11 (Qb-SNARE NPSN11 fused to YFP, estradiol-inducible) (Arabidopsis thaliana) (UniProt Q944A9); assay: as above
# T2 sequence: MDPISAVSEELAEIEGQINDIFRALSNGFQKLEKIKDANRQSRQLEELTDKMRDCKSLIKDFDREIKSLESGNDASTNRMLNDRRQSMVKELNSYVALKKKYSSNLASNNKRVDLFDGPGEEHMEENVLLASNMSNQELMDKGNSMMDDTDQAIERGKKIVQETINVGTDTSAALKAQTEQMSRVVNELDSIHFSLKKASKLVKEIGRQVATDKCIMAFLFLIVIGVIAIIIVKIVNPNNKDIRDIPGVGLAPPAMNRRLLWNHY
substance,measurement,setting,value
Qa-SNARE KNOLLE,binding,[1],binds
same,binding,[2],binds
